This passage reports binding results from paper PMC6941878.

By UniProt entry, the sequences of proteins in these tests, tags left out.
UniProt P56524: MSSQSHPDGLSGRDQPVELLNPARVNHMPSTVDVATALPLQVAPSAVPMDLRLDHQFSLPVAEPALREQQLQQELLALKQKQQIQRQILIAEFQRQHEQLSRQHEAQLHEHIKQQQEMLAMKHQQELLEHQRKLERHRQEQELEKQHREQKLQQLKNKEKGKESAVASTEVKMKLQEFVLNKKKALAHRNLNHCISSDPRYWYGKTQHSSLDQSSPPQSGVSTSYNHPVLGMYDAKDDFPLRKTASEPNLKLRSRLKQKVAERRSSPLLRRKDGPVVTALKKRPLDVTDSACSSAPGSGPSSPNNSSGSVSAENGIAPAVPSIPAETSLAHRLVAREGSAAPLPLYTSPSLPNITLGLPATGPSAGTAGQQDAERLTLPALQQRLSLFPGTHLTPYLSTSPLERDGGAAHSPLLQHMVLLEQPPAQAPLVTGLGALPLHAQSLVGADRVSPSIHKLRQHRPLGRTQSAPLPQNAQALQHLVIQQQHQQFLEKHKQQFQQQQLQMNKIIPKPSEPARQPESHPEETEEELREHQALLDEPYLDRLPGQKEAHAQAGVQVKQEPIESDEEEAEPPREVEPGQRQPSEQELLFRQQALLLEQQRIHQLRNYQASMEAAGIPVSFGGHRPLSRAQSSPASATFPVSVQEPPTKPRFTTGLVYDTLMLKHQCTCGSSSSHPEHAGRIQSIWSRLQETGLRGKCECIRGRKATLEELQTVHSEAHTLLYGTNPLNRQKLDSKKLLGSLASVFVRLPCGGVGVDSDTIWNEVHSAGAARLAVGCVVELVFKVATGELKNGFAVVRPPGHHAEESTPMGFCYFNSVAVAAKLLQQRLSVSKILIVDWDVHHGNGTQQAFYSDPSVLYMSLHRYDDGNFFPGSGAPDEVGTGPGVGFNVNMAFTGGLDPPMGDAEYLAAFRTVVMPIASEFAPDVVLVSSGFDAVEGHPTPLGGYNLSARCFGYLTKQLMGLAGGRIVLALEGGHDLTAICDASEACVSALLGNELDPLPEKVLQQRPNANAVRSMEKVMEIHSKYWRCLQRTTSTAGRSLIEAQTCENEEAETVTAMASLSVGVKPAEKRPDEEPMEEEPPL
UniProt O75365: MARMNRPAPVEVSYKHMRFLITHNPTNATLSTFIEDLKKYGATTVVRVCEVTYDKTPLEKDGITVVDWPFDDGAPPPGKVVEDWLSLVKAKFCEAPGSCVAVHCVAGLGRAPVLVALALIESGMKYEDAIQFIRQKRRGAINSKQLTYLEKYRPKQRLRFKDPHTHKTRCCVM

These are yes or no findings as the source states them, for the method shown. Binding seen in cells or lysates may run through a third protein. Some binding calls cover weakened binding; strength is not graded here.

In this assay the target is endogenous HDAC4 in A2780 cells (human (endogenous in A2780)) (UniProt P56524). Kind of assay: co-IP; A2780-GFP-PRL-3 cells; mutual immunoprecipitation of PRL-3 and HDAC4, immunoblot. (A western blot detects proteins with antibodies after separation by electrophoresis.)

Consider “GFP-PRL-3 fusion protein (phosphatase of regenerating liver 3) in A2780 cells (from UniProt O75365 1-173)”, for which the binding entry was “binds”.
